Results of single-concentration screens

From ChEMBL document CHEMBL3988442, “University of Dundee, Small-Polar-MMV Screening Library” (2021).

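Whole-parasite assay of Trypanosoma brucei over 72 hours; the read-out is not stated. Compounds at 30 µM. The record gives no direction; compounds that gave an IC50 in retests scored well above the rest, so higher reads as stronger inhibition. Values scatter widely below zero; nearly all retest evidence comes from the higher of the two concentrations used. About 64,000 compounds were tested under these conditions; 1.5% (about 940) showed 50% or more at least once.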

Each number is a percent effect as filed.
The record does not define 0% and 100%; most values in the screen are far below 50% and negative numbers occur (in some assays of this library far below -100).
Compounds were drawn at random from those tested, without regard to their results.

| SMILES | percent effect |
|---|---|
| `COc1ccc(CCNC(C)c2ccc3[nH]c(=O)[nH]c3c2)cc1OC` (centres undefined) | -7.58 |
| `Cc1ccsc1C(O)CNS(=O)(=O)Cc1ccc(F)cc1` (centres undefined) | 5.969 |
| `[H][C@@]12CN(C(=O)c3ccc(OC)cc3)CCN1C(=O)CNC2=O` | -42.87 |
| `O=C(c1cc(-n2cnnn2)ccc1Cl)N1CCC2(CC1)OCCO2` | -7.089 |
| `CCNC(=O)[C@@H]1C[C@H](N)CN1C(=O)CCc1ccc(C)c(C)c1` | -54.72 |
| `COCCN1CC(=O)c2sc(NCc3ccccc3)nc2C1` | -21.9 |
| `Cc1ccc(CN2C[C@H](O)C[C@H]2c2nc(-c3ccc(F)cc3)no2)cc1` | -4.637 |
| `COc1cnc(N2CCC(Oc3ccccc3OC)(C(=O)O)CC2)nc1` | 20.38 |
| `O=C(NC1CCCc2c1[nH]c1ccc(F)cc21)c1n[nH]c2c1CCC2` (centres undefined) | -26.19 |
| `Cc1noc(CNc2ccccc2N2CCCCC2)n1` | -6.532 |
| `CCn1nc(C)c2ncnc(N(C)Cc3ccco3)c21` | -63.14 |
| `Cc1csc(N2CCN(C(=O)CCNc3ncccn3)CC2)n1` | -11.98 |
| `Cc1ccccc1C(NC(=O)CCCS(C)(=O)=O)C(C)(C)C` (centres undefined) | -59.59 |
| `CC(C)CN1CCC(C(=O)Nc2cc(C(F)(F)F)c[nH]c2=O)CC1` | 28.75 |
| `[H][C@@]12CS(=O)(=O)C[C@]1([H])N(Cc1ccc3nsnc3c1)CCN2CCOC` | -30.58 |
| `Cc1oncc1C(=O)N1CC2CC1(C(=O)N(C)C)C2` | -15.18 |
| `Cc1noc2nc(C3CCN(CC4=CCCOC4)CC3)cc(C(F)F)c12.Cl` | 13.26 |
| `CC(C)Cn1cnc(S(=O)(=O)NCCc2nnc3ccccn23)c1` | -58.54 |
| `CC(Cc1ccco1)NC(=O)CCn1cccn1` (centres undefined) | -42.84 |
| `CCn1cnnc1C1CCN(C(=O)c2ccc(OC(C)C)nc2)CC1` | 7.735 |
| `Cc1cc(C)n(CC2CCCN2C(=O)CCc2ccncc2)n1` (centres undefined) | 11.9 |
| `O=c1cc2c(nn1CN1CCN(c3ccccc3)CC1)CCC2` | 47.94 |
| `CCc1nc(C(=O)N2CCN(CC)CC2)nn1-c1ccccc1Cl` | -13.55 |
| `[H][C@@]12CS(=O)(=O)C[C@]1([H])N(C(=O)Nc1ccccc1C)CCN2C(=O)C1CC1` | -58.23 |
| `CC(C)[C@H](Nc1nc(C2CCCC2)nc2c1cnn2C)C(N)=O` | -23.68 |
| `Cc1nc(C2CCCN(C(=O)c3ccc(N4CCCC4)nc3)C2)no1` (centres undefined) | 13.24 |
| `CC(C)CC(C)N(C)C(=O)c1nc(S(C)(=O)=O)n2ccccc12` (centres undefined) | 8.407 |
| `Cc1ccsc1[C@@H]1CCN(C(=O)CCC(=O)c2ccccc2)C[C@H]1O` | -26.89 |
| `CCC[C@@H]1CN(Cc2ccc3c(c2)OCCO3)C[C@H]1C(=O)O` | -27.21 |
| `c1cncc(CN2CCC(c3csc4nccn34)CC2)c1` | 9.609 |
| `Cc1cc(C(=O)N2CCCC(c3nccn3Cc3ccncc3)C2)no1` (centres undefined) | -39.47 |
| `COCCOc1ccc(CNCC2CNc3cc(C)nn3C2)cn1` (centres undefined) | 6.502 |
| `CC(C#N)CSc1ccccc1NCC(=O)Nc1ccc(F)cc1` (centres undefined) | -115.7 |
| `[H][C@]12CC[C@]([H])(CN(C3CCOCC3)C1)N(Cc1cnc(NCCC)nc1)C2` | -135.2 |
| `CC(C)CN1CC2(CCN(C(=O)C(O)c3ccccc3Cl)CC2)CC1=O` (centres undefined) | -21.88 |
| `Cn1ccc(C2CCCCN2C(=O)c2cccc(Cn3cccn3)c2)n1` (centres undefined) | -27.63 |
| `CC(C)c1nc(C2CCCN(c3ncccn3)C2)no1` (centres undefined) | -9.81 |
| `Cc1ccc(C(=O)N2Cc3c(CN(C)C)nn(C)c3C2)cc1C.O=C(O)C(F)(F)F` | -15.69 |
| `Cc1nc(C)c(CN2CCOC(CNc3cccnn3)C2)s1` (centres undefined) | 8.143 |
| `Cc1cc(CNS(=O)(=O)CCCC#N)ccc1N(C)C` | -21.48 |
| `O=C(O)C(F)(F)F.O=C(O)C(F)(F)F.[H][C@]12CCC(=O)N(c3cccnc3)[C@@]1([H])CCN2c1ncc(CC)cn1` | -85.85 |
| `CCc1nc(C)c(CN2CCOC(Cc3ccccc3Cl)C2)[nH]1` (centres undefined) | -6.9 |
| `CCc1nc(CCn2ccc3nc(OC)c(C#N)cc3c2=O)no1` | 5.508 |
| `CC(NCc1ccsc1)c1ccc2c(c1)NC(=O)CO2` (centres undefined) | 8.916 |
| `[H][C@@]12CCCO[C@]1([H])[C@H](NS(C)(=O)=O)CN(Cc1cccc(C)n1)C2` | 17.49 |
| `O=C(O)C(F)(F)F.O=C(O)C(F)(F)F.[H][C@@]12CCCO[C@]1([H])[C@H](OCC)CN2Cc1scnc1C` | -93.06 |
| `COc1cc(F)ccc1-c1cnc(N)cn1` | -46.24 |
| `O=C1NCCCCC1Sc1ccc(F)c(F)c1` (centres undefined) | -37.88 |

For reference, 6 entries once more:

- CC(C)CN1CC2(CCN(C(=O)C(O)c3ccccc3Cl)CC2)CC1=O (centres undefined) | -21.88%
- Cc1ccccc1C(NC(=O)CCCS(C)(=O)=O)C(C)(C)C (centres undefined) | -59.59%
- O=C(O)C(F)(F)F.O=C(O)C(F)(F)F.[H][C@]12CCC(=O)N(c3cccnc3)[C@@]1([H])CCN2c1ncc(CC)cn1 | -85.85%
- Cc1nc(C)c(CN2CCOC(CNc3cccnn3)C2)s1 (centres undefined) | 8.143%
- Cc1noc2nc(C3CCN(CC4=CCCOC4)CC3)cc(C(F)F)c12.Cl | 13.26%
- Cc1cc(C)n(CC2CCCN2C(=O)CCc2ccncc2)n1 (centres undefined) | 11.9%